{"source": "patent US5886142A", "about": "“Radiolabeled thrombus imaging agents” (Thomas Jefferson University, priority 1997, dated 1999)", "key": {"platelets": {"test_system": "platelets", "conditions": "cited from earlier work"}, "MDA-231 cells": {"test_system": "MDA-231 cells", "assay": "Cell adhesion assay (method of Tuszynski et al.)", "format": "cell-based", "conditions": "not radiolabeled; peptide dried in microtiter wells, one hour incubation", "description": "Using the method of Tuszynski et al. J. Cell Biol. 1992, 116, 209-221, the hexapeptide Cys Ser Val Thr Cys Gly (SEQ ID NO: 4) and fibrinectin were used as controls, and the composition of SEQ ID NO: 7, as a test peptide. None of the peptides or fibrinectin were radiolabeled. Fifty μl of a […] saline solution of the peptide or protein was air dried overnight in wells of a microtiter plate. After drying, the wells were blocked with 50 μl of BSA for 30 minutes and washed with Hepes-bufferedsaline. The wells were incubated for one hour with a titer of 3.3×10^4 MDA-231 cells in 100 μl of Hepes-buffered saline containing 5 mM glucose, 1 mM MgCl2 and 1 mM CaCl2. The wells were washed once with PBS and adherent cells were fixed with 3% glutaraldehyde and stained with Giemsa overnight. The total number of adherent cells were counted under light microscopy."}}, "note": "Not every detail of the peptide structures is certain; ends, links or a residue may be inferred. Residues, ends and D or L forms follow the SMILES beside them.", "data": [{"smiles": "CC(C)[C@H](NC(=O)[C@H](CO)NC(=O)[C@@H](N)CS)C(=O)N[C@H](C(=O)N[C@@H](CS)C(=O)NCC(=O)O)[C@@H](C)O", "note": "[SEQ ID NO: 4, Cys Ser Val Thr Cys Gly, reference compound] (H-CSVTCG-OH)", "values": [{"measurement": "effect on ADP-induced platelet aggregation", "setting": "platelets", "value": "inhibited ADP-induced platelet aggregation"}, {"measurement": "lower cell adhesion as compared to fibronectin", "setting": "MDA-231 cells", "value": "approximately 17%"}]}]}
